Measurements taken from PMC5532393.
These are yes or no findings as the source states them, for the method shown. In cells and extracts the contact can be indirect.

T1: Arc (activity-regulated, cytoskeleton-associated gene) (mouse (endogenous in cortex and hippocampus)), Q9WV31
T1 chain: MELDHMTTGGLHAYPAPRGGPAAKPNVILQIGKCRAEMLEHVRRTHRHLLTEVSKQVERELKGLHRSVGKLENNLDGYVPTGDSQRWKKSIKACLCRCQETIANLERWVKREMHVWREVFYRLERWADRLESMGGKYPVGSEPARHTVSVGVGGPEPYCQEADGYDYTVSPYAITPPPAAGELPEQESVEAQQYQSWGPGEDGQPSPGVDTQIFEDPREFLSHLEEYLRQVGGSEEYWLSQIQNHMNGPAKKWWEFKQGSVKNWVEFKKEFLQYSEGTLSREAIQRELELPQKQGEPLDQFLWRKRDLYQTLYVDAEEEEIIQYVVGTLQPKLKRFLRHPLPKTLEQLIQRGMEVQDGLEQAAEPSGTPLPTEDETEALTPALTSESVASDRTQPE

T2: E3 ubiquitin ligase Ube3A (mouse (endogenous in cortex and hippocampus)), O08759
T2 chain: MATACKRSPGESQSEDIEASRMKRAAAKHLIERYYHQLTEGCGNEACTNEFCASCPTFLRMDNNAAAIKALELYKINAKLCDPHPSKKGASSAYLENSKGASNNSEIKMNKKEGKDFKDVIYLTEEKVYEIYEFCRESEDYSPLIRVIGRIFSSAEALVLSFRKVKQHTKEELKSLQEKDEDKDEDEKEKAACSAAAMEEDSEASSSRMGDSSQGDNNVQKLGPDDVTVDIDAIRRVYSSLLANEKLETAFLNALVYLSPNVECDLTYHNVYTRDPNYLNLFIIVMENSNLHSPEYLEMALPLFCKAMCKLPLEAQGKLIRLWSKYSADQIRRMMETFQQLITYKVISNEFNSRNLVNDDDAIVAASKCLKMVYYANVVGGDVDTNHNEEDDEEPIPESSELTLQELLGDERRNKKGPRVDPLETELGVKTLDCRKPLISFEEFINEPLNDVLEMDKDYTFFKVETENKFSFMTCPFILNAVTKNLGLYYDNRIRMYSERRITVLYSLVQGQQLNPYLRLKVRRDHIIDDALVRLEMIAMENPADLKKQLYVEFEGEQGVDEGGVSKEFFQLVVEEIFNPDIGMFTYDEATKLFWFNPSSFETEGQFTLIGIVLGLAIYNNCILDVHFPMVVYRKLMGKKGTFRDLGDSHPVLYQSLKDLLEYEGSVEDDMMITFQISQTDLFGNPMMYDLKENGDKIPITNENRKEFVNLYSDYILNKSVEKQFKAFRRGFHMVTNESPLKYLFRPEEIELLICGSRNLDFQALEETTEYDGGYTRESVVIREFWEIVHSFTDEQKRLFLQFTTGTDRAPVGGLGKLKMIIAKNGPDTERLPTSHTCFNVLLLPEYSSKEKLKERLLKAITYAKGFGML


Experiments:
Conditions in all cases: remark: other sources report otherwise
[1] = molecular target: T1, Arc (activity-regulated, …); assay: co-IP; nuclear and synaptoneurosome fractions of P30 WT mouse hippocampal lysate; Arc immunoprecipitated; immunoblot
[2] = molecular target: T1, Arc (activity-regulated, …); assay: co-IP; whole cortical lysate of P15 or P60 WT mice; Ube3A or Arc immunoprecipitated, protein A beads; immunoblot
[3] = molecular target: T1, Arc (activity-regulated, …); assay: co-IP; nuclear and synaptoneurosome fractions of P30 WT mouse cortex, pellets resuspended in immunoprecipitation buffer; Arc immunoprecipitated; immunoblot
[4] = molecular target: T1, Arc (activity-regulated, …); assay: co-IP; whole hippocampal lysate of P30 WT mice; Arc immunoprecipitated, protein A beads; immunoblot for Arc and Ube3A
[5] = molecular target: T2, E3 ubiquitin ligase Ube3A (mouse …); assay: co-IP; whole cortical lysate of P15 or P60 WT mice; Ube3A or Arc immunoprecipitated, protein A beads; immunoblot
[6] = molecular target: T2, E3 ubiquitin ligase Ube3A (mouse …); assay: co-IP; whole cortical lysate of P30 WT mice dark-housed 24 h, then 2 h enriched environment; antibody 1 ug/mL 2 h at 4°C, protein A beads 1 h, three washes; immunoblot

binding [1]	binding [2]	binding [3]	binding [4]	binding [5]	binding [6]	Binder
no binding	no binding	no binding	no binding	–	–	E3 ubiquitin ligase Ube3A, O08759 1-870 (enzyme) MATACKRSPGESQSEDIEASRMKRAAAKHLIERYYHQLTEGCGNEACTNEFCASCPTFLRMDNNAAAIKALELYKINAKLCDPHPSKKGASSAYLENSKGASNNSEIKMNKKEGKDFKDVIYLTEEKVYEIYEFCRESEDYSPLIRVIGRIFSSAEALVLSFRKVKQHTKEELKSLQEKDEDKDEDEKEKAACSAAAMEEDSEASSSRMGDSSQGDNNVQKLGPDDVTVDIDAIRRVYSSLLANEKLETAFLNALVYLSPNVECDLTYHNVYTRDPNYLNLFIIVMENSNLHSPEYLEMALPLFCKAMCKLPLEAQGKLIRLWSKYSADQIRRMMETFQQLITYKVISNEFNSRNLVNDDDAIVAASKCLKMVYYANVVGGDVDTNHNEEDDEEPIPESSELTLQELLGDERRNKKGPRVDPLETELGVKTLDCRKPLISFEEFINEPLNDVLEMDKDYTFFKVETENKFSFMTCPFILNAVTKNLGLYYDNRIRMYSERRITVLYSLVQGQQLNPYLRLKVRRDHIIDDALVRLEMIAMENPADLKKQLYVEFEGEQGVDEGGVSKEFFQLVVEEIFNPDIGMFTYDEATKLFWFNPSSFETEGQFTLIGIVLGLAIYNNCILDVHFPMVVYRKLMGKKGTFRDLGDSHPVLYQSLKDLLEYEGSVEDDMMITFQISQTDLFGNPMMYDLKENGDKIPITNENRKEFVNLYSDYILNKSVEKQFKAFRRGFHMVTNESPLKYLFRPEEIELLICGSRNLDFQALEETTEYDGGYTRESVVIREFWEIVHSFTDEQKRLFLQFTTGTDRAPVGGLGKLKMIIAKNGPDTERLPTSHTCFNVLLLPEYSSKEKLKERLLKAITYAKGFGML
–	–	–	–	no binding	no binding	Arc (activity-regulated, cytoskeleton-associated gene), Q9WV31 1-396 (protein) MELDHMTTGGLHAYPAPRGGPAAKPNVILQIGKCRAEMLEHVRRTHRHLLTEVSKQVERELKGLHRSVGKLENNLDGYVPTGDSQRWKKSIKACLCRCQETIANLERWVKREMHVWREVFYRLERWADRLESMGGKYPVGSEPARHTVSVGVGGPEPYCQEADGYDYTVSPYAITPPPAAGELPEQESVEAQQYQSWGPGEDGQPSPGVDTQIFEDPREFLSHLEEYLRQVGGSEEYWLSQIQNHMNGPAKKWWEFKQGSVKNWVEFKKEFLQYSEGTLSREAIQRELELPQKQGEPLDQFLWRKRDLYQTLYVDAEEEEIIQYVVGTLQPKLKRFLRHPLPKTLEQLIQRGMEVQDGLEQAAEPSGTPLPTEDETEALTPALTSESVASDRTQPE
